In publication PMC7940691:
No constants are given. Whether binding was seen depends on the method and setting. For some assays here: Binding can be weak; no strength is given. Where a sequence is shown, tags or fusion partners need not be part of it.

What was measured:
[1] = molecular target: T1, MKB1ΔC (MAKIBISHI1 devoid of its membrane spanning domain, amino acid 1–237), fused to the GAL4 DNA-binding domain (Medicago truncatula) (UniProt G9CSC7); assay: two-hybrid; binary assay: bait (MKB1ΔC or RMA1-3ΔC) fused to the GAL4 DNA-binding domain, prey fused to the GAL4 activation domain; 10- and 100-fold dilutions spotted on control medium (-2) and selective medium (-3, lacking His)
T1 sequence: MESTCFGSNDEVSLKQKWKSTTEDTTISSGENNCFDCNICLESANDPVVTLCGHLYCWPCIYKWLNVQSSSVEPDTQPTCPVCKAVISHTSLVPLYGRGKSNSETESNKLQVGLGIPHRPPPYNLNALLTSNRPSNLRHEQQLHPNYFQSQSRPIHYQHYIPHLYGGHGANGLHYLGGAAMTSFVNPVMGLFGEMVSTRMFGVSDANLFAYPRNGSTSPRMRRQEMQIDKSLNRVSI

[2] = molecular target: T1, MKB1ΔC (MAKIBISHI1 devoid of its membrane spanning domain, amino acid 1–237), fused to the GAL4 DNA-binding domain (Medicago truncatula); assay: yeast three-hybrid; MKB1ΔC and HMGR1ΔN as bait and prey, MASH as third protein N-terminally fused to a nuclear localization signal (pMG426-NLS); transformants on SD lacking Leu, Trp and Ura, selective medium lacking His in addition

Row | Substance | binding [1] | binding [2]
1 | Arabidopsis MASH homolog encoded by At5G64360, fused to the GAL4 activation domain | binds | 
2 | M. truncatula HMGR1 devoid of its membrane domain (HMGR1ΔN) (Medicago truncatula) (domain or fragment) |  | no binding
